The test system of this data set is CHO-K1 cells. The experiment in a line: Cellular uptake and distribution by fluorescence (confocal) microscopy. Type of data set: cell-based, Chinese hamster. The note with it: 10 µM, 30 min. The protocol:
Figure 6 Cellular uptake and intracellular distribution of selected probes (1 and 6) and triazole derivatives (11, 12, 13, and 15) in Chinese hamster ovary cells. CHO-K1 cells were cultured overnight and then incubated with the tested compounds (10 μM). Representative images (100× magnification) illustrating intracellular distribution of the compounds in CHO-K1 cells were captured after 30 min of incubation with the tested compounds. Scale bar = 20 μm.
CHO-K1 cells were seeded at a density of 2 × 10^5/well in 12-well plates containing cover slips at the bottom and cells were incubated for 24 h. Then, cells were fixed in 3.7% formaldehyde in PBS for 10 min in 37 °C, washed twice with PBS, and stained with compound solution (10 µM) for 30 min. After this time, the cells were rinsed 2 times with Gibco FluoroBrite DMEM and a coverslip was placed on a stock carrier with drops of culture medium. Finally, slides were mounted in ProLong™ Glass Antifade Mountant and visualized under an A1 confocal system built on a Nikon Eclipse Ti-E microscope (Japan) equipped with 405 and 561 nm diode lasers and a Plan Apo 100×/1.4 Oil DIC objective.

In the case of `C#CCNC(=O)C1=C(C)C=C(C)N2C[N+](CC)(CC)N=C12.[Br-]` [Compound 1, 2,2-Diethyl-5,7-dimethyl-8-[(prop-2-yn-1-yl)carbamoyl]-2H,3H-[1,2,4]triazolo [4,3-a]pyridin-2-ium bromide], the “Stability and fluorescence under microscopic observation conditions” value is “remain stable and fluorescent”.
As for `CC[N+]1(CC)CN2C(C)=CC(C)=C(C(=O)NCCCCCN=[N+]=[N-])C2=N1.[Br-]` [Compound 6, 8-((5-Azidopentyl)carbamoyl)-2,2-diethyl-5,7-dimethyl-2,3-dihydro-[1,2,4]triazolo[4,3-a]pyridin-2-ium bromide], the entry is “remain stable and fluorescent”.
